From PubChem BioAssay AID1671190 (National Center for Advancing Translational Sciences (NCATS), 2021)
Among all 580,000 compounds or so, about 6,100 (1.1%) were called active. This list was built around the results that the source calls inconclusive (neither active nor inactive); the mix of calls is not that of the screen. The call rests on the fitted dose curve; in most records, active means well fitted inhibition curve with a large enough effect; inconclusive means small, poorly fitted or top-dose-only effect, or another doubt; inactive means no such curve, though single readings can be large or run the other way. A potency beside an inconclusive call is a rough fit, not a confirmed value.

By UniProt entry, the sequences of proteins in these tests, tags left out.
UniProt P18054, whole entry, looked up: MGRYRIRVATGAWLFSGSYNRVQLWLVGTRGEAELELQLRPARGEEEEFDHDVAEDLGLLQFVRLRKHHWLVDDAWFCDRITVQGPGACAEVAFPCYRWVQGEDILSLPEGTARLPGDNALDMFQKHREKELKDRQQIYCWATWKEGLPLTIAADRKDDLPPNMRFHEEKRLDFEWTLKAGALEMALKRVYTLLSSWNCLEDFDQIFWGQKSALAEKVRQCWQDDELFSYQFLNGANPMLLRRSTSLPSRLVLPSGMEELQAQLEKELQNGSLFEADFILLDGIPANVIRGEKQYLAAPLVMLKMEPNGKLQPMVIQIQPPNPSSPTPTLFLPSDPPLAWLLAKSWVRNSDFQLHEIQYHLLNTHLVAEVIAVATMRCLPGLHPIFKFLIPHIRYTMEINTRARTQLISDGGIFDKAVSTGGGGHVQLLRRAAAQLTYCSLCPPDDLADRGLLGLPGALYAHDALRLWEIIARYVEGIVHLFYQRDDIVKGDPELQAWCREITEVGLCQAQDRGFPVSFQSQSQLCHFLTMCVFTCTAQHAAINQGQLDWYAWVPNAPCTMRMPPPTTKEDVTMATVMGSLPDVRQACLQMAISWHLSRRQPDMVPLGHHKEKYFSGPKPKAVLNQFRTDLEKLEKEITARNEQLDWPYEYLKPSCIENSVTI

target: Polyunsaturated fatty acid lipoxygenase ALOX12 (Homo sapiens) (UniProt P18054); test: Primary qHTS assay for inhibitors of human arachidonate 12S-lipoxygenase (ALOX12): Round 2; conditions: purified 12hLO, xylenol orange hydroperoxide absorbance; activity change, negative = inhibition: at 108 µM (top of the series) unless noted
Procedure, shortened: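 Purified human 12hLO (150 nM final) in 25 mM Hepes, 0.01% Triton X-100, pH 7.0 was preincubated 15 min at room temperature with compound. Then 40 uM arachidonic acid was added, 30 min. Hydroperoxide was read by Fe-XO absorbance ratio 573/405 nm.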
On the % scale 0 is the no-effect control and ±100 the full control effect; potency means the concentration at half of the fitted maximal effect.

SMILES	Potency	activity change, negative = inhibition
Cn1c2c(c(=O)n(C)c1=O)C(c1ccccc1Cl)C(C#N)=C(N)O2 (centres undefined)	inactive	
CCCOC(=O)c1c(-c2ccc(C)cc2C)csc1NC(=O)C1C2CCC(O2)C1C(=O)O (centres undefined)	inconclusive: 44.7 µM [inhibitor, partial curve, poor fit]	
COc1ccc(C(=O)C[n+]2ccccc2C)cc1	inactive	
Cc1cccc2cc(CN(Cc3cccs3)C(=S)NCc3ccco3)c(=O)[nH]c12	inconclusive: 50.1 µM [inhibitor, full curve, poor fit]	
COc1cc(/C=N/NS(=O)(=O)c2ccc(C)c([N+](=O)[O-])c2)ccc1O	inconclusive: 70.8 µM [inhibitor, partial curve, poor fit]	
COc1ccc(C)cc1NC(=O)Nc1ccccc1	inconclusive: 70.8 µM [inhibitor, partial curve, poor fit]	
COc1ccc(-c2nc(C)c(C(=O)NCc3ccccc3OC)s2)cc1		inconclusive: -36% [inhibitor]
CCOC(=O)c1c(C)[nH]c(C(=O)NNC(=O)c2ccccc2F)c1C	inactive	
c1csc(-c2nc(-c3ccc4c(c3)OCCCO4)cs2)c1	inconclusive: 7.08 µM [inhibitor, full curve, poor fit]	
COc1ccc2ccc(OCC(=O)NC3CCCC3)cc2c1	inactive	
Cc1cccc2c(C=O)c(C(C)(C)C)[nH]c12	inconclusive: 25.1 µM [inhibitor, partial curve, poor fit]	
CO[C@H]1C[C@@H]2CC[C@@H](C)[C@@](O)(O2)C(=O)C(=O)N2CCCC[C@@H]2C(=O)O[C@H]([C@H](C)C[C@@H]2CC[C@H](OP(C)(C)=O)[C@H](OC)C2)CC(=O)[C@H](C)C=C(C)[C@@H](O)[C@@H](OC)C(=O)[C@H](C)C[C@H](C)C=CC=CC=C1C	inactive	
CC(C)Oc1ccc(C(=O)N2CCCCC2CCN2CCCCC2)cc1 (centres undefined)	inactive	
O=C(N/N=C/c1ccc([N+](=O)[O-])o1)c1cc(-c2ccncc2)nc2ccccc12	inactive	
CCOc1cc(/C=C/c2nc3ccccc3s2)ccc1OCC(=O)N1CCOCC1	inconclusive: 50.1 µM [inhibitor, partial curve, poor fit]	
O=C(NC(=S)Nc1cccc(-c2ccc(CO)o2)c1)c1cccs1	inconclusive: 3.98 µM [inhibitor, full curve, poor fit]	
O=[N+]([O-])c1ccc(/C=N/NC(=S)Nc2ccccc2F)o1	inconclusive: 50.1 µM [inhibitor, partial curve, poor fit]	
N#CNC(=Nc1ccc(Cl)cc1)Oc1ccccc1	inconclusive: 31.6 µM [inhibitor, partial curve, poor fit]	
CCCS(=O)(=O)N1CCCC1C(=O)NC1CCCC1 (centres undefined)	inactive	
COc1ccccc1C1CN(Cc2cccc(O)c2)Cc2ccccc2O1 (centres undefined)	inconclusive: 112 µM [inhibitor, single point]	
O=C(c1ccc(Cl)cc1)C(Cn1cncn1)C(Sc1ccccc1)c1ccccc1 (centres undefined)	inactive	
CCOC(=O)C1(CCCc2ccccc2)CCN(Cc2ccn[nH]2)CC1	inactive	
O=C(O)c1ccc(NC(=S)NC(=O)c2cccnc2)cc1	inconclusive: 25.1 µM [inhibitor, full curve]	

Part of the list above, comma-delimited.
SMILES,Potency,"activity change, negative = inhibition"
Cn1c2c(c(=O)n(C)c1=O)C(c1ccccc1Cl)C(C#N)=C(N)O2 (centres undefined),inactive,
CCCOC(=O)c1c(-c2ccc(C)cc2C)csc1NC(=O)C1C2CCC(O2)C1C(=O)O (centres undefined),"inconclusive: 44.7 µM [inhibitor, partial curve, poor fit]",

Remaining list, next part:

SMILES	Potency	activity change, negative = inhibition
CC12CC3(C)CC(C(=O)O)(C1)CC(C(=O)O)(C2)C3	inactive	
Cc1ccc(NC(=O)c2cc(C)nc3ccccc23)nc1		inconclusive: -57.5% [inhibitor]
COC(=O)c1cnc(NC(=O)Cc2ccc(-c3ccccc3)cc2)s1	inactive	
OCC1(CNCC2CCCC2)C[C@@H](O)[C@@H](O)C1 (some centres undefined)	inactive	
COc1[nH]c(/N=C/c2ccccc2)c(C#N)c1C#N	inconclusive: 8.91 µM [inhibitor, full curve, poor fit]	
Cc1oc2c(c1C(=O)c1ccccc1)C(=O)C(=O)c1ccccc1-2	inconclusive: 44.7 µM [inhibitor, partial curve, poor fit]	
CN(C)S(=O)(=O)c1ccc(Cl)c(C(=O)Nc2cccc3cccnc23)c1	inconclusive: 50.1 µM [inhibitor, partial curve, poor fit]	
O=C(COc1ccccc1[N+](=O)[O-])Nc1cccc(C(=O)Nc2ccccc2C(=O)O)c1	inconclusive: 39.8 µM [inhibitor, partial curve, poor fit]	
COc1ccc(-n2c(CNC(=O)c3ccc(S(=O)(=O)N4CCCC4)cc3)n[nH]c2=S)cc1	inconclusive: 31.6 µM [inhibitor, partial curve, poor fit]	
O=C(c1ccccc1)C1C(=O)c2ccccc2C1=O	inconclusive: 8.91 µM [inhibitor, full curve]	
CCOC(=O)C(C)On1c(-c2ccc(Cl)cc2)nc2ccc([N+](=O)[O-])cc21 (centres undefined)	inconclusive: 44.7 µM [inhibitor, partial curve, poor fit]	
CCC(=O)OC1(C)C(=O)C=C2C=C(c3ccc(C#N)cc3)OC=C2C1=O (centres undefined)	active: 5.62 µM	
CC(=O)c1ccc(NC(=O)COC(=O)Cn2cnc3ccccc32)cc1	inactive	
Cn1ncc2c(N[C@@H](Cc3ccccc3)C(N)=O)nc(-c3ccncc3)nc21	inactive	
O=c1c(N2CCN(Cc3ccccc3)CC2)csc2ccc(Cl)cc12	inconclusive: 5.62 µM [inhibitor, full curve, poor fit]	
CC1CC(N(C(=O)c2ccco2)c2ccccc2)c2ccccc2N1C(=O)c1ccco1 (centres undefined)	inactive	
CCOC(=O)N1CCC(NCCNC(=O)c2ccccc2Cl)CC1	inconclusive: 0.631 µM [inhibitor, full curve, poor fit]	
Cc1ccc(Nc2nc(N3CCN(CCO)CC3)nc3c2cnn3-c2ccccc2)cc1	inconclusive: 100 µM [inhibitor, single point]	
COc1cccc(C(=O)N2CCC(C(NC(=O)c3cccs3)C(=O)NCC(C)C)CC2)c1 (centres undefined)	inconclusive: 14.1 µM [inhibitor, full curve]	
O=[N+]([O-])c1cccc(-c2noc([C@@H]3C[C@@H](O)CN3Cc3cccc(OC(F)(F)F)c3)n2)c1	inconclusive: 39.8 µM [inhibitor, partial curve, poor fit]	
COc1ccc(-n2ccnc2SCC(=O)NO)cc1	inconclusive: 126 µM [inhibitor, single point]	
O=C(c1ccccc1[N+](=O)[O-])n1cnc2ccccc21	inactive	
Cc1cc(C(=O)N2CCCC(N3CCN(c4cccc(C(F)(F)F)c4)CC3)C2)no1 (centres undefined)	inactive	

SMILES	Potency	activity change, negative = inhibition
CC(C)(C)OC(=O)C[C@@H]1C/C=C\C[C@@H](CC(=O)NCCO)C(=O)N[C@H](C(C)(C)C)COC1=O	inactive	
CC1(c2ccc(OC(F)F)cc2)NC(=O)N(CC(=O)NCCC2=CCCCC2)C1=O (centres undefined)	inconclusive: 126 µM [inhibitor, single point]	
Cc1cc(C)n(-c2nc3c(c(=O)n(CCc4ccccc4)c(=O)n3C)n2CCC(C)C)n1	inactive	
CCN(CC)c1ccc(C(=O)OCC(=O)NC2CCCCC2C)cc1 (centres undefined)	inactive	
CN(Cc1ccccc1Cl)C(=O)Cn1c(=O)c2c(ncn2C)n(C)c1=O	inactive	
O=C(NCCC1CCCCN1S(=O)(=O)c1cccs1)C(=O)Nc1cccc(F)c1 (centres undefined)	inactive	
COc1ccc(C)cc1NC(=O)CCN1CCN(C/C=C/c2ccccc2)CC1	inconclusive: 7.08 µM [inhibitor, full curve, poor fit]	
COc1cc2c(cc1NC(=O)C(C)Oc1ccccc1)oc1ccccc12 (centres undefined)	inactive	
COc1ccc2nc(N3C(=O)C(O)=C(C(=O)c4ccco4)C3c3ccco3)sc2c1 (centres undefined)	inconclusive: 0.501 µM [inhibitor, full curve, poor fit]	
O=C(CSCC(=O)OCC(=O)c1ccc(Br)cc1)Nc1cccc2ccccc12	inconclusive: 56.2 µM [inhibitor, partial curve, poor fit]	
COC(=O)C(NC(=O)c1ccccc1)(Nc1nc(C2CC2)cs1)C(F)(F)F (centres undefined)	inactive	
Cc1ccc(-n2nnnc2SC(C)C(=O)NCC(=O)Nc2ccc(F)c(F)c2F)c(C)c1 (centres undefined)	inconclusive: 79.4 µM [inhibitor, single point]	
Oc1ccc(Cl)cc1C=Nc1cc(C(F)(F)F)ccc1Oc1ccccc1	inactive	
O=C(c1cc2cc([N+](=O)[O-])ccc2oc1=O)N1CCOCC1	inactive	
Cc1ccc(/C=C2\C(=O)NC(=O)N2C)o1	inconclusive: 70.8 µM [inhibitor, partial curve, poor fit]	
COc1ccc(C(=O)COC(=O)/C=C/c2ccco2)cc1F	inconclusive: 63.1 µM [inhibitor, partial curve, poor fit]	
CC(C)CNC(=O)c1cccc2c(-c3cccc(C(N)=O)c3)coc12	inactive	
c1ccc(OCc2nn3c(Cn4nnc5ccccc54)nnc3s2)cc1	inconclusive: 35.5 µM [inhibitor, partial curve, poor fit]	
COc1ccc(NC(=O)NCCCN2CCC(Cc3ccccc3)CC2)cc1	inconclusive: 50.1 µM [inhibitor, partial curve, poor fit]	
COC(=O)c1ccc(CNC(=O)NCC2(c3ccccc3)CC2)cc1	inactive	
O=C(CSc1oc(-c2ccco2)nc1S(=O)(=O)c1ccc(Cl)cc1)Nc1ccc(F)cc1	inconclusive: 70.8 µM [inhibitor, partial curve, poor fit]	
COC(C)c1cccc(-c2cc(NC3CC3)nc(N)n2)c1 (centres undefined)	inactive	
O=C(CC(=O)c1ccccc1)CS(=O)(=O)c1ccccc1	inconclusive: 2.82 µM [inhibitor, full curve, poor fit]	
